In paper PMC5829831, “Structural Basis for DNA Recognition by the Two-Component Response Regulator RcsB” (mBio, 2018):
These are yes or no findings as the source states them, for the method shown.

Molecular target: RcsB, two-component response regulator of the Rcs phosphorelay system (E. coli) (UniProt P0DMC7)
Experiment: condition: only in the absence of DNA (RcsB 1 mg/ml); SEC-MALS; RcsB alone, without DNA, with and without 50 mM CPh + 10 mM MgCl2; 1 mg/ml; Superdex 75 10/300 GL; 10 mM Tris-HCl pH 8.3, 150 mM NaCl, 0.5 mM TCEP (10 mM MgCl2 in the runs with CPh); 22°C; both purified

binding: no binding
B1: RcsB, two-component response regulator of the Rcs phosphorelay system (natural protein, E. coli, UniProt P0DMC7 1-216, looked up)
chain: MNNMNVIIADDHPIVLFGIRKSLEQIEWVNVVGEFEDSTALINNLPKLDAHVLITDLSMPGDKYGDGITLIKYIKRHFPSLSIIVLTMNNNPAILSAVLDLDIEGIVLKQGAPTDLPKALAALQKGKKFTPESVSRLLEKISAGGYGDKRLSPKESEVLRLFAEGFLVTEIAKKLNRSIKTISSQKKSAMMKLGVENDIALLNYLSSVTLSPADKD
notes: RcsB from Escherichia coli, full length, REC domain, linker and HTH domain; theoretical mass of the monomer 24 kDa; In some samples carbamoyl phosphate (CPh) and MgCl2 were added to phosphorylate D56; also called RcsB* (in the presence of phosphodonor); unphosphorylated RcsB; source: purified RcsB
